Screening data, single-dose tests

Amino acid sequences for entries named in this document (tags omitted). Residues count along the entry.
UniProt Q8IDJ8, 1-583: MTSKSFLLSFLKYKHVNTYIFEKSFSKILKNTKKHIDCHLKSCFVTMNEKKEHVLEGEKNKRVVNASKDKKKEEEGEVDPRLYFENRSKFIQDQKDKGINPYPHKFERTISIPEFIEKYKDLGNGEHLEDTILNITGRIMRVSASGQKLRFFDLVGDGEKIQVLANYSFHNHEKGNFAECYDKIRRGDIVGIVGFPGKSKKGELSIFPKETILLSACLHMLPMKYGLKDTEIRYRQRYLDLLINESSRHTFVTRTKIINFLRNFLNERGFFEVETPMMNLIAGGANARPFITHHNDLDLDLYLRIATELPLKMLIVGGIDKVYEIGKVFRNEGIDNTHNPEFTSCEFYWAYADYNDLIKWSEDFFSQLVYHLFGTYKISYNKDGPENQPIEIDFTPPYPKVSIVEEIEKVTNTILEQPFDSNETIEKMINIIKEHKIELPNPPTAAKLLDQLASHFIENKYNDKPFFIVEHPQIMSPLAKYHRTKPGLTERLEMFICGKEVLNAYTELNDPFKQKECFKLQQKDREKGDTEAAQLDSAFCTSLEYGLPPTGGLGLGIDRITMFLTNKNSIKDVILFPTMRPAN
UniProt A4I591, 1-473: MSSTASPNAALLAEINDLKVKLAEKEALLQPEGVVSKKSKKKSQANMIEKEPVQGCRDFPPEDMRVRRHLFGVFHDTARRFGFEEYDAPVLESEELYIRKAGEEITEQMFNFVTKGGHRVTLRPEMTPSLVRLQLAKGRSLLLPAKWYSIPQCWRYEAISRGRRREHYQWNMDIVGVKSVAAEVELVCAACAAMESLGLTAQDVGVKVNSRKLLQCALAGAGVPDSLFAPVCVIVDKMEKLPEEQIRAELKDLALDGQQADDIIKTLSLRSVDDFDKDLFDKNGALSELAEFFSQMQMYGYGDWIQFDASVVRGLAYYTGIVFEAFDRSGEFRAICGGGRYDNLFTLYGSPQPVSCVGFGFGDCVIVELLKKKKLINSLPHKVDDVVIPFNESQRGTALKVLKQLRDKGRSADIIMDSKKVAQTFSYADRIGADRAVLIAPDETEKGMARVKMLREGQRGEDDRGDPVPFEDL
UniProt Q4DA54, 1-478: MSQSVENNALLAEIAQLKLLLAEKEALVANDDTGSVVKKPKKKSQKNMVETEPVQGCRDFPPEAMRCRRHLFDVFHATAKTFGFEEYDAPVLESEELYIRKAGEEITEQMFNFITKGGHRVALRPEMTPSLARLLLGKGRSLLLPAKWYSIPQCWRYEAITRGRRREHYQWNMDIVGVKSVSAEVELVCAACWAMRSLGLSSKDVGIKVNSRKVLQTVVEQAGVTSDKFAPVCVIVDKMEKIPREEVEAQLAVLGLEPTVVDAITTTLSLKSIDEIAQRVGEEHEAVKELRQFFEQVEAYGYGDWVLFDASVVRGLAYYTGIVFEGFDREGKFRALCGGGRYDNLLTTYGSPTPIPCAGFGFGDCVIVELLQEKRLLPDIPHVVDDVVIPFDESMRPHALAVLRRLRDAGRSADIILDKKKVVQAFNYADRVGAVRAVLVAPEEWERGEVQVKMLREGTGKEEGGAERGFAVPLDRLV
UniProt P9WPC5, whole entry: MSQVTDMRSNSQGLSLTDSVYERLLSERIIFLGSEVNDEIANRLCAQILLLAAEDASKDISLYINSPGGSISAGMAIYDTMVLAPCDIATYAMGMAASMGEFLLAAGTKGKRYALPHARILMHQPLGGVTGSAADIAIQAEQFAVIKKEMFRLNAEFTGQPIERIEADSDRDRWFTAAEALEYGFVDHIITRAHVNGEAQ
UniProt P9WPC3, whole entry partner: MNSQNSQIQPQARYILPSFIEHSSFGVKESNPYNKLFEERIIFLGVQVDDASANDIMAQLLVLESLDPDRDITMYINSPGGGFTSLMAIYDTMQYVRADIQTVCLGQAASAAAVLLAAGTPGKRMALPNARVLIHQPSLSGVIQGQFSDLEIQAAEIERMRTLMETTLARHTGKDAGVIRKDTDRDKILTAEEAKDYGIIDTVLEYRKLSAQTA

PfKRS1: 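Enzyme assay of the cytosolic lysyl-tRNA synthetase in 384-well plates, read by luminescence. Target: Lysine-tRNA ligase, Plasmodium falciparum 3D7 (UniProt Q8IDJ8). Compounds at 30 µM. Higher reads as stronger inhibition, judged from the few compounds that gave an IC50. Of about 69,000 compounds tested this way, about 49 (0.071%) reached 50% or more in at least one test.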
LiHisRS: 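Histidine-tRNA ligase, Leishmania infantum (UniProt A4I591). Enzyme assay of histidyl-tRNA synthetase; the read-out is not stated. Compounds at 30 µM. The record gives no direction; compounds that gave an IC50 in retests scored well above the rest, so higher reads as stronger inhibition. The assay is labelled LdHisRS but filed under L. infantum. Of about 69,000 compounds tested this way, about 410 (0.6%) reached 50% or more in at least one test.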
TcHisRS: 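Enzyme assay of histidyl-tRNA synthetase; the read-out is not stated. Target: Histidine-tRNA ligase, Trypanosoma cruzi CL Brener (UniProt Q4DA54). Tested at 30 µM. Direction is inferred from retests: higher values go with stronger inhibition. Of about 69,000 compounds tested this way, about 31 (0.045%) reached 50% or more in at least one test.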
Leishmania in macrophages: 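Cell assay of Leishmania donovani living inside macrophages; the read-out is not stated. Concentration: 30 µM. Direction is inferred from retests: higher values go with stronger inhibition. Size under these conditions: about 69,000 compounds, about 1,000 of them at 50% or above in at least one test.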
ClpP1P2: 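ClpP1P2, Mycobacterium tuberculosis (UniProt P9WPC5 and UniProt P9WPC3). Protease assay of ClpP1P2, read by the AMC dye that it sets free. Concentration: 50 µM. Direction is inferred from only a few compounds that gave an IC50; most scored high, so higher reads as stronger inhibition. Most other retested compounds had strongly negative values. Size under these conditions: about 69,000 compounds, about 10 of them at 50% or above in at least one test.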

The filed quantity is “Percent Effect” (%). How 0% and 100% were set is not recorded. Most values in the screen are low, and negative values occur. This is an unselected part of the compounds tested. Two or more numbers in one place are separate tests of the same structure; such repeats can differ widely. A dash means the value is not listed here; it may have been measured.

Compound | PfKRS1 | LiHisRS | TcHisRS | Leishmania in macrophages | ClpP1P2
CCc1nc(N2CCN(CCOC)CC2)c2cnn(C)c2n1 | 4.193 | 16 | 9.639 | 9.143 | -10.6
CCc1ncnc2c1CCN(Cc1cccs1)CC2 | 5.195 | 22.22 | -13.43 | - | -8.602
Cc1ncc(CN(Cc2ccccn2)Cc2ccccc2Cl)n1C.O=C(O)CC(O)(CC(=O)O)C(=O)O | - | - | - | 14.16 | -
CC(C)N1CCN(C(=O)Nc2cnc3c(cnn3C(C)C)c2)CC1 | -0.1977 | 7.273 | 7.018 | 2.118 | -26.12
CO[C@H]1CN(Cc2nc3ccccc3n2C)CC[C@@]12CCCO2 | -0.4129 | 11.51 | 6.513 | 4.472 | 1.191
COCCN(CCC#N)Cn1cc(Cl)cn1 | 2.038 | 11.5 | 3.982 | -6.448 | -15.98
CCc1cnc(N2C[C@H](OCc3csc(C)n3)[C@H]3COC[C@H]32)nc1 | 14.6 | 20.69 | 1.266 | - | 7.187
Cc1ccc(C(CCNCCN(C)C)C2CCOC(C)(C)C2)cc1.O=C(O)C(=O)O (configuration not stated) | - | - | - | 99.98 | -
O=C(c1cnc(-c2cnccn2)s1)N1CCCC(n2cccn2)C1 (configuration not stated) | -1.309 | 8.772 | 6.017 | 16.53 | 1.233
O=C(NC1COC2(CCN(Cc3ccccn3)CC2)C1)c1ccccn1.O=C(O)C(F)(F)F (configuration not stated) | - | - | - | 99.23 | -
Cn1ccc2c(NC(=O)Cn3ncc4c(c3=O)CCCCC4)cccc21 | 2.683 | 18.68 | 5.155 | 16.34 | 1.355
CCN1CC(C(=O)NCc2cccc(SC)c2)CC1=O (configuration not stated) | 4.026 | 1.042 | 5.587 | -29.4 | -2.581
CC(C)[C@H](NS(C)(=O)=O)C(=O)NCc1cc(-c2ccco2)n[nH]1 | 4.844 | 54.29 | 5.65 | 5.578 and 21.77 | 9.43
Cc1cccc(CN2CCC3(CCN(c4ncccn4)CC3)C2=O)c1 | 4.277 | 34.62 | 14.56 | - | -6.326
CN(CCc1cnn(C)c1)C(=O)Cn1c(=O)[nH]c2ccccc21 | 3.733 | 8.989 | 7.538 | 34.06 | -7.99
CN(Cc1nc2c(cnn2C)c(=O)[nH]1)Cc1ccco1 | -2.216 | 13.91 | 1.149 | -5.064 | -4.377
CCc1n[nH]c(C2CN(Cc3nccn3CC)CCO2)n1 (configuration not stated) | 0.1418 | 21.33 | 1.887 | 9.413 | 16.78
CC(=O)N1CCN(C(=O)c2cccc(OCc3cscn3)c2)CC1 | 0.5555 | 19.44 | 6.158 | 23.9 | 2.694
CS(=O)(=O)NCc1ncn2c1CN(Cc1cccs1)CCC2 | 1.677 | 17.43 | 7.563 | - | 12.26
COc1ccccc1CNC(=O)N1CCN(Cc2cc(C)on2)CC1 | 0.9701 | 12.5 | 6.916 | 4.734 | -24.6
CC(C)(CO)CNC(=O)c1cc(-c2cc[nH]n2)n2ccccc12 | 2.471 | -66.67 | -47.24 | - | -453.3
Cc1nn(C2CCS(=O)(=O)C2)c(O)c1Cc1ccc(Br)cc1 (configuration not stated) | 0.7516 | 10.53 | 0.5848 | -13.1 | 1.848
Cc1nn(C)c(C)c1-c1cc(-c2cnn(C)c2C2CC2)c(C#N)c(N)n1 | 8.574 | 18.99 | 5.603 | -10.19 | -20.35
O=C(O)C(F)(F)F.[H][C@@]12CN(CC3CCCCC3)C[C@]1([H])OCCN2c1ncc(F)cn1 | - | - | - | -16.59 | -
O=C(O)c1ccccc1CN1CCCC(Cc2ccn[nH]2)C1 (configuration not stated) | 2.207 | 11.51 | 10.34 | 27.88 | 17.05
CN1CCN(C(=O)c2n[nH]c3c2CN(Cc2nccs2)CC3)CC1 | 2.165 | 22.37 | 3.261 | 18.27 | -2.749
CCOC(=O)CCC(=O)N1CCC(Oc2ncccc2Cl)CC1 | 5.647 | 12.17 | 0 | 25.01 and -5.049 | -4.315
Cn1ccc(C(=O)NC2CCC23CCN(C(=O)c2cnccn2)CC3)c1 (configuration not stated) | 0.5341 | 17.65 | 7.882 | 11.2 | 4.925
CC(=O)N1CCC(NS(=O)(=O)c2cccnc2)CC1 | 1.49 | -6.667 | -1.734 | -13.76 | 15.3
Cn1c(=O)[nH]c(=O)n2c(CC(=O)NCc3ccccc3)cnc12 | 1.937 | -1.379 | 2.959 | 1.654 | -0.07599
COCCC1(C(=O)O)CCCN(CCc2ccccc2)C1 (configuration not stated) | -1.449 | -4.167 | 3.797 | -1.625 | -15.89
CN(C)[C@H]1COC[C@@H]2CN(Cc3ccc4c(c3)OCO4)C[C@@H]21 | 0.2728 | 16.24 | 2.674 | - | 6.887
OCCn1nccc1C1CCN(Cc2nc(C3CC3)no2)CC1 | 0.8295 | 8.929 | 2.882 | -30.13 | -27.39
Cc1ccc(-c2nc(C(=O)N3CCOCC3)cs2)c(C)c1 | 1.615 | 12.84 | 5.539 | 16.68 | -10.39

Measurements from “University of Dundee, Small-Polar-MMV Screening Library” (2021), ChEMBL document CHEMBL3988442.